Measurements taken from patent US20260209387A1, “SINGLE-DOMAIN ANTIBODY FOR INHIBITION OF NEUTROPHIL ELASTASE ACTIVITY” (UNIVERSITE DE LIEGE, priority 2023, published 2026).
These are yes or no findings as the source states them, for the method shown. Some binding calls cover weakened binding; strength is not graded here.

Legend:
[1] = target: T1, mouse neutrophil elastase (mouse, UniProt Q3UP87 29-265, limits assumed); experiment: BLI, comparison of the values in Table 2
T1 sequence (looked up): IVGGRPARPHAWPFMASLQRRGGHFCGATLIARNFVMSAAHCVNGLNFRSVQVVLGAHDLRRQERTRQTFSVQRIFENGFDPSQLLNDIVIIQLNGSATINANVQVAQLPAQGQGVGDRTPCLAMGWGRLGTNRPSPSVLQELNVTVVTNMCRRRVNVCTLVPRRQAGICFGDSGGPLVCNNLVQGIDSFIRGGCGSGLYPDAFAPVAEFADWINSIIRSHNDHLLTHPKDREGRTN

[2] = target: T1, mouse neutrophil elastase; experiment: BLI (Octet), biotinylated NbE201 on streptavidin sensors, mNE in solution

binding [1]: binds
binding [2]: binds
B1: biotinylated NbE201 (VHH)
VHH: QVQLQESGGGLVQAGGSLRLSCVVPGRTISLYRMGWFRQAPGKEREFVAGINWSGDMTDYVDSVKGRFTISRDNAKNTVYLEMNSLKPEDTAIYYCTADPKLLPLADSSYGYWGQGTQVTVSS
modifications: C-terminal Cys biotinylated with EZ-Link Maleimide-PEG2-Biotin
notes: Form immobilised on streptavidin sensors in all BLI experiments; It was produced in the pHEN25 vector and biotinylated site-specifically on its C-terminal Cys; also called NbE201_Cter Biot; biotinylated ISVD NbE201
